# Reference: the supplement of paper PMC4604168 (melanoma cell lines)
# The list shows a part of the results. Many values rest on one well or one pass, so single values are uncertain.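 Cells were imaged in 1,536-well plates, and nuclei stained with an antibody against cleaved PARP were counted against all DNA-stained nuclei to give the apoptosis fraction. Screening doses were chosen to leave most cells alive, and resting and induced cleaved-PARP levels differ strongly between cell lines.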
# Tests used:
# Test in all cases: cleaved PARP positive nuclei fraction relative to DMSO control; melanoma cells; higher = more apoptosis
# Conditions in all cases: library dose: low library concentration; 72 h
# MZ2-MEL = test system: MZ2-MEL
# MeWo = test system: MeWo
# RPMI7951 = test system: RPMI7951
# RVH-421 = test system: RVH-421
# SkMel28 = test system: SkMel28
# SkMel2 = test system: SkMel2
# SkMel30 = test system: SkMel30
# SkMel5 = test system: SkMel5
# UACC257 = test system: UACC257
# UACC62 = test system: UACC62
# WM115 = test system: WM115
# WM1716 = test system: WM1716
# WM1745 = test system: WM1745
# WM3526 = test system: WM3526
# WM3619 = test system: WM3619
# WM451Lu = test system: WM451Lu
Compound,cleaved PARP positive nuclei fraction (MZ2-MEL) [%],cleaved PARP positive nuclei fraction (MeWo) [%],cleaved PARP positive nuclei fraction (RPMI7951) [%],cleaved PARP positive nuclei fraction (RVH-421) [%],cleaved PARP positive nuclei fraction (SkMel28) [%],cleaved PARP positive nuclei fraction (SkMel2) [%],cleaved PARP positive nuclei fraction (SkMel30) [%],cleaved PARP positive nuclei fraction (SkMel5) [%],cleaved PARP positive nuclei fraction (UACC257) [%],cleaved PARP positive nuclei fraction (UACC62) [%],cleaved PARP positive nuclei fraction (WM115) [%],cleaved PARP positive nuclei fraction (WM1716) [%],cleaved PARP positive nuclei fraction (WM1745) [%],cleaved PARP positive nuclei fraction (WM3526) [%],cleaved PARP positive nuclei fraction (WM3619) [%],cleaved PARP positive nuclei fraction (WM451Lu) [%]
"O=C(/C=C/c1cccnc1)NCCCCC1CCN(C(=O)c2ccccc2)CC1 + O=C1NC(=O)/C(=C/c2ccc(-c3ccc(F)cc3O)o2)S1 [AS252424] (first compound 0.01 µM, partner dose 1 µM)",361,47.9,32.2,51.8,42.2,490,381,77.8,93.9,100,112,22.2,91,40.7,117,266
"O=c1[nH]nc(Sc2ncc([N+](=O)[O-])s2)n1-c1ccc2c(c1)OCCO2 + Cn1cncc1[C@@](N)(c1ccc(Cl)cc1)c1ccc2c(c1)c(-c1cccc(Cl)c1)cc(=O)n2C [tipifarnib] (first compound 0.2 µM, partner dose 0.01 µM)",133,46.5,157,270,60.1,131,96.3,58.5,92.6,68.9,74.1,105,87.2,76.2,64.6,31.4
"Cc1cn(-c2cc(NC(=O)c3ccc(C)c(Nc4nccc(-c5cccnc5)n4)c3)cc(C(F)(F)F)c2)cn1 [nilotinib] + COc1cc2ncnc(Nc3ccc(Oc4ccccc4)cc3)c2cc1OC [SrcI1] (first compound 0.2 µM, partner dose 2 µM)",107,167,66.9,80.7,111,51.3,54.7,67.4,124,110,170,149,99.6,123,97.8,89.6
"CC[C@]1(O)C[C@H]2CN(CCc3c([nH]c4ccccc34)[C@@](C(=O)OC)(c3cc4c(cc3OC)N(C=O)[C@H]3[C@@](O)(C(=O)OC)[C@H](OC(C)=O)[C@]5(CC)C=CCN6CC[C@]43[C@@H]65)C2)C1 [vincristine] + NCC(=O)Nc1ccc(-n2nc(C(F)(F)F)cc2-c2ccc3c(ccc4ccccc43)c2)cc1 [OSU03012] (first compound 0.0001 µM, partner dose 1 µM)",90.7,392,64.7,518,130,150,134,243,197,53.7,284,7550,97.3,85.7,87.9,709
"Cc1cc(Nc2cc(N3CCN(C)CC3)nc(Sc3ccc(NC(=O)C4CC4)cc3)n2)n[nH]1 [Tozasertib] + N#Cc1c(O)c2c(-c3ccc(-c4ccccc4O)cc3)csc2[nH]c1=O [A769662] (first compound 0.006 µM, partner dose 2 µM)",67.1,118,198,41.5,114,44.1,66,76.1,80.9,92.4,105,64.6,117,75.5,102,174
"CC[C@]1(O)C[C@H]2CN(CCc3c([nH]c4ccccc34)[C@@](C(=O)OC)(c3cc4c(cc3OC)N(C=O)[C@H]3[C@@](O)(C(=O)OC)[C@H](OC(C)=O)[C@]5(CC)C=CCN6CC[C@]43[C@@H]65)C2)C1 [vincristine] + Cn1cc(/C=C2\C(=O)Nc3cccnc32)c2ccccc21 [GW441756] (first compound 0.0001 µM, partner dose 0.4 µM)",121,146,297,141,168,25.6,387,50.3,203,230,493,70.5,97.4,105,98.8,84.9
"Cc1cn(-c2cc(NC(=O)c3ccc(C)c(Nc4nccc(-c5cccnc5)n4)c3)cc(C(F)(F)F)c2)cn1 [nilotinib] + COc1cc(Nc2ncc(F)c(Nc3ccc4c(n3)NC(=O)C(C)(C)O4)n2)cc(OC)c1OC [Tamatinib] (first compound 0.2 µM, partner dose 0.4 µM)",80.6,382,49.6,51.5,107,236,77.5,359,240,183,122,121,130,244,79.6,111
"N#CC[C@H](C1CCCC1)n1cc(-c2ncnc3[nH]ccc23)cn1 [ruxolitinib] + NC(=O)Nc1cc(-c2cccc(F)c2)sc1C(=O)N[C@H]1CCCNC1 [AZD7762] (first compound 1 µM, partner dose 0.02 µM)",104,206,120,63.9,94.6,121,49.3,188,89.9,112,77.3,107,88.4,201,157,143
"Cc1cn(-c2cc(NC(=O)c3ccc(C)c(Nc4nccc(-c5cccnc5)n4)c3)cc(C(F)(F)F)c2)cn1 [nilotinib] + COc1ccc(-c2ccc3c(N4CCOCC4)nc(N4C[C@@H](C)O[C@@H](C)C4)nc3n2)cc1CO [KU0063794] (first compound 0.2 µM, partner dose 0.02 µM)",67.7,66.6,107,136,266,137,113,68,204,201,81,72.7,106,108,99.7,22.2
"CCCCCCCCCCCCCCCCCCOP(=O)([O-])OC1CC[N+](C)(C)CC1 [Perifosine] + COc1cc(N2CCC(N3CCN(C)CC3)CC2)ccc1Nc1ncc(Cl)c(Nc2ccccc2S(=O)(=O)C(C)C)n1 [NVP-TAE684] (first compound 0.4 µM, partner dose 0.08 µM)",140,379,88.4,96.6,192,163,334,97.6,258,160,80.7,65.9,119,81.1,94.7,183
"Cc1cn(-c2cc(NC(=O)c3ccc(C)c(Nc4nccc(-c5cccnc5)n4)c3)cc(C(F)(F)F)c2)cn1 [nilotinib] + CC(C)(C)c1cnc(CSc2cnc(NC(=O)C3CCNCC3)s2)o1 [SNS-032] (first compound 0.2 µM, partner dose 0.01 µM)",163,67.9,54.3,85.9,173,114,71.4,180,74,252,97.2,130,189,60.5,104,66.1
"Cc1ccc(Nc2nccc(N(C)c3ccc4c(C)n(C)nc4c3)n2)cc1S(N)(=O)=O [Pazopanib] + Cc1ccc(NC(=O)c2cccc(N(C)C)c2)cc1NC(=O)c1ccc(O)cc1 [ZM336372] (first compound 0.4 µM, partner dose 2 µM)",207,51.2,109,38.3,97.7,60.3,36,220,109,105,97.3,140,114,56.1,82.8,136
"CCCCCCCCCCCCCCCCCCOP(=O)([O-])OC1CC[N+](C)(C)CC1 [Perifosine] + O=C(CCCCCCC(=O)Nc1ccccc1)NO [vorinostat] (first compound 0.4 µM, partner dose 0.08 µM)",115,71.2,124,91.9,73.4,121,77.9,73.3,148,215,47.7,115,113,119,103,307
"N#CC[C@H](C1CCCC1)n1cc(-c2ncnc3[nH]ccc23)cn1 [ruxolitinib] + Cc1cc([N+](=O)[O-])ccc1NS(=O)(=O)c1cc(Cl)ccc1Cl [FH535] (first compound 1 µM, partner dose 1 µM)",80.7,56.8,32.3,93.2,148,43.8,45.9,118,87,153,147,82,75.5,37.2,117,74
"Cc1ccc(Nc2nccc(N(C)c3ccc4c(C)n(C)nc4c3)n2)cc1S(N)(=O)=O [Pazopanib] + O=C(O)C(=O)Nc1sc2c(c1C(=O)O)CCNC2 [TCS401] (first compound 0.4 µM, partner dose 1.66667 µM)",83.5,95.4,101,105,125,117,148,90.6,72.8,36.5,46.5,55.3,106,144,99.4,72.2
"CCCCCCCCCCCCCCCCCCOP(=O)([O-])OC1CC[N+](C)(C)CC1 [Perifosine] + CN(C)S(=O)(=O)c1ccc2c(c1)/C(=C/c1cc3c([nH]1)CCCC3)C(=O)N2 [SU6656] (first compound 0.4 µM, partner dose 0.4 µM)",131,158,110,35,165,95.1,72.8,41.8,82.7,122,53.1,38.1,87.3,207,81.1,72.5
"O=C(/C=C/c1cccnc1)NCCCCC1CCN(C(=O)c2ccccc2)CC1 + COc1cc2ncnc(Nc3ccc(Oc4ccccc4)cc3)c2cc1OC [SrcI1] (first compound 0.01 µM, partner dose 2 µM)",391,50.2,129,109,160,651,498,71.7,136,191,44.5,26.7,84.3,75.3,224,95.4
"O=C(Nc1cc(C(F)(F)F)cc(C(F)(F)F)c1)c1cc(Cl)ccc1O + Oc1nc(-c2ccc(C(F)(F)F)cc2)nc2c1CSCC2 [XAV939] (first compound 0.016 µM, partner dose 2 µM)",97.7,30.5,98.4,76.3,145,94.1,72.3,152,45.2,105,182,94,86.1,156,67.4,37.9

# Reformatted: results already given.
Compound	cleaved PARP positive nuclei fraction (MZ2-MEL) [%]	cleaved PARP positive nuclei fraction (MeWo) [%]	cleaved PARP positive nuclei fraction (RPMI7951) [%]	cleaved PARP positive nuclei fraction (RVH-421) [%]	cleaved PARP positive nuclei fraction (SkMel28) [%]	cleaved PARP positive nuclei fraction (SkMel2) [%]	cleaved PARP positive nuclei fraction (SkMel30) [%]	cleaved PARP positive nuclei fraction (SkMel5) [%]	cleaved PARP positive nuclei fraction (UACC257) [%]	cleaved PARP positive nuclei fraction (UACC62) [%]	cleaved PARP positive nuclei fraction (WM115) [%]	cleaved PARP positive nuclei fraction (WM1716) [%]	cleaved PARP positive nuclei fraction (WM1745) [%]	cleaved PARP positive nuclei fraction (WM3526) [%]	cleaved PARP positive nuclei fraction (WM3619) [%]	cleaved PARP positive nuclei fraction (WM451Lu) [%]
CCCCCCCCCCCCCCCCCCOP(=O)([O-])OC1CC[N+](C)(C)CC1 [Perifosine] + COc1cc(N2CCC(N3CCN(C)CC3)CC2)ccc1Nc1ncc(Cl)c(Nc2ccccc2S(=O)(=O)C(C)C)n1 [NVP-TAE684] (first compound 0.4 µM, partner dose 0.08 µM)	140	379	88.4	96.6	192	163	334	97.6	258	160	80.7	65.9	119	81.1	94.7	183
Cc1cn(-c2cc(NC(=O)c3ccc(C)c(Nc4nccc(-c5cccnc5)n4)c3)cc(C(F)(F)F)c2)cn1 [nilotinib] + CC(C)(C)c1cnc(CSc2cnc(NC(=O)C3CCNCC3)s2)o1 [SNS-032] (first compound 0.2 µM, partner dose 0.01 µM)	163	67.9	54.3	85.9	173	114	71.4	180	74	252	97.2	130	189	60.5	104	66.1
